In paper PMC4944147:
These are yes or no findings as the source states them, for the method shown. Some entries that bind do so weakly or less than the wild type.

Biological target: interferon regulation factor 3 (IRF3), porcine, endogenous in primary porcine alveolar macrophages (pig (endogenous in PAMs)) (UniProt Q764M6)
Test: native gel or EMSA

B1: interferon regulation factor 3 (IRF3), porcine, endogenous in primary porcine alveolar macrophages (protein, UniProt Q764M6 1-419)
chain: MGTQKPRILPWLISQLNQGQLEGVAWLDEGHTRFRIPWKHGLRQDAQQEDFGIFQAWAEASGAYTPGKDKPDLPTWKRNFRSALNRKEALRLAEDHSKDPHDPHKIYEFVTSGVGDFPEPDTSLDLSGRYSTSDTHEDSLDKLLSGMDLASDAGPQSLTLALEQPPQLSLSPSVDAPASCPNLGVRENPLKQLLANDDEWEFQVTVFYRGCQVFQQTVCSPGGLRLVGSEAEDGTLAGQPVRLPDPAASLTDRGVADYVRRVLSCLGGGLALWRAGQWLWAQRLGHCHVYWAMGEELIPDSGHKPDGEVPKDREGGVFDLGPFIEDLIAFIEGSRRSPRYTLWFCMGQSWPQDEPWVKRLVMVKVVPMCLRALVDMARDGGASSLENTVDLHISNSHPLSLTSDQYKACLRDLVEDMDF
binding: binds
